# Laboratory results taken from patent US20040029860A1, “Anti-proliferative drugs” (priority 2000, published 2004).
# Test system: different cell-lines
# Assay: mean IC50 over cell lines and therapeutic index
# Settings: safe daily dose (mg) divided by mean IC50 (μM)
row,SMILES,Therapeutic index Mean safe dose/IC50
1,CN(C)CCCN1c2ccccc2Sc2ccc(Cl)cc21 [Chlorpromazine],600 mg/45.7 = 13.1
2,OCCN1CCN(CC/C=C2/c3ccccc3Sc3ccc(C(F)(F)F)cc32)CC1 [Flupentixiol],40 mg/18.25 = 2.19
3,OCCN1CCN(CCCN2c3ccccc3Sc3ccc(Cl)cc32)CC1 [Perphenazine],40 mg/20.0 = 2.0
4,CN1CCN(CCCN2c3ccccc3Sc3ccc(C(F)(F)F)cc32)CC1 [Trifluoperazine],40 mg/16.7 = 2.39
